Substitutions are numbered along the chain they refer to. Names and notes keep the numbering of the source. No constants are given. Whether binding was seen depends on the method and setting. Some results given as binding are weak or reduced against the parent protein; the word gives no strength. Sequences can lack the tags named with a protein. Values belong to the binder of their own block, whether it stands above or below them.
Tests used:
Test in all cases: two-hybrid
[1] = target: T1, ICR1 W338Q, two-hybrid fusion (Arabidopsis) (UniProt Q8LE98)
T1 sequence: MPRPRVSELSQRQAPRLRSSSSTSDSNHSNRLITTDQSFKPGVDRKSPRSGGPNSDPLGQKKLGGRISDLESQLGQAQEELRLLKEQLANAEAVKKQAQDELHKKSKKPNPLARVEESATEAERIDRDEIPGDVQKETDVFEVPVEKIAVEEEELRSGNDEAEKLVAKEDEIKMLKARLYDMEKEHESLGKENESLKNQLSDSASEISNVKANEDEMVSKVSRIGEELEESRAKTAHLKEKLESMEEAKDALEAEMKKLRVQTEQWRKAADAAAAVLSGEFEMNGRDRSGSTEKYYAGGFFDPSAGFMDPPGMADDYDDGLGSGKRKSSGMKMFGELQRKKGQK

[2] = target: T2, ICR1W266A, two-hybrid fusion (Arabidopsis) (UniProt Q8LE98)
T2 sequence: T1 sequence with W266A, Q338W

[3] = target: T3, ICR1W338A, two-hybrid fusion (Arabidopsis) (UniProt Q8LE98)
T3 sequence: T1 sequence with Q338A

[4] = target: T4, full-length ICR1, pDEST22/pDEST32 two-hybrid fusion (Arabidopsis) (UniProt Q8LE98)
T4 sequence: T1 sequence with Q338W

[5] = target: T5, icr1-151-344 (ICR1 C-terminal fragment, residues 151 to 344), two-hybrid fusion (Arabidopsis) (UniProt Q8LE98)
T5 sequence: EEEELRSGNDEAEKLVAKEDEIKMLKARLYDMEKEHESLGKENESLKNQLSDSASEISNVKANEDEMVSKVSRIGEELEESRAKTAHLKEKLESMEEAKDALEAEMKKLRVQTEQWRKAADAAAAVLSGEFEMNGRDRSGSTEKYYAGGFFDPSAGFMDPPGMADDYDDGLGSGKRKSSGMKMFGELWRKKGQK

[6] = target: T6, icr1-301-344 (the 44 C-terminal residues of ICR1), two-hybrid fusion (Arabidopsis) (UniProt Q8LE98)
T6 sequence: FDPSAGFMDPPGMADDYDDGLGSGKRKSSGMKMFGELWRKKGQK

[7] = target: T7, icr1W266Q, two-hybrid fusion (Arabidopsis) (UniProt Q8LE98)
T7 sequence: T1 sequence with W266Q, Q338W

[8] = target: T8, ICR1, LexA system two-hybrid fusion (Arabidopsis) (UniProt Q8LE98)
T8 sequence: T1 sequence with Q338W

[9] = target: T9, ICR1 (Interactor of Constitutively active ROP 1), pGBT-ICR1 two-hybrid fusion (Arabidopsis) (UniProt Q8LE98)
T9 sequence: T1 sequence with Q338W

[10] = target: T10, CMI1, two-hybrid fusion of the assays with auxin transport and signaling proteins (S11 Fig) (Arabidopsis) (UniProt O81831)
T10 sequence: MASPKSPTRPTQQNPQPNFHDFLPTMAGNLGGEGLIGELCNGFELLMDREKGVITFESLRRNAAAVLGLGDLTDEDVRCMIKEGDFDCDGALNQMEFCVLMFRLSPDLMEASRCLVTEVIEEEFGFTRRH

[11] = target: T11, CMI2/PID Binding Protein 1 (PBP1), two-hybrid fusion (Arabidopsis) (UniProt Q9LSQ6)
T11 sequence: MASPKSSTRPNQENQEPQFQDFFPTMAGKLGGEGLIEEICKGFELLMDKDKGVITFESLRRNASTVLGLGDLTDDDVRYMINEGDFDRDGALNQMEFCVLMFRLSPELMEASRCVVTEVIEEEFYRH

B1: CMI1, pDEST22/pDEST32 two-hybrid fusion (protein, UniProt O81831 1-130)
chain: T10 sequence
- binding [1]: no binding
- binding [2]: binds
- binding [3]: no binding
- binding [4]: binds
- binding [5]: binds
- binding [6]: binds
- binding [7]: binds

B2: cmi1 L100A, pDEST22/pDEST32 two-hybrid fusion (protein, UniProt O81831 1-130)
chain: T10 sequence with L100A
- binding [4]: no binding

B6: cmi1 L92A, pDEST22/pDEST32 two-hybrid fusion (protein, UniProt O81831 1-130)
chain: T10 sequence with L92A
- binding [4]: no binding

B8: PINOID (PID), AGC kinase, two-hybrid fusion (enzyme, UniProt O64682 1-438)
chain: MLRESDGEMSLGTTNSPISSGTESCSSFSRLSFDAPPSTIPEEESFLSLKPHRSSDFAYAEIRRRKKQGLTFRDFRLMRRIGAGDIGTVYLCRLAGDEEESRSSYFAMKVVDKEALALKKKMHRAEMEKTILKMLDHPFLPTLYAEFEASHFSCIVMEYCSGGDLHSLRHRQPHRRFSLSSARFYAAEVLVALEYLHMLGIIYRDLKPENILVRSDGHIMLSDFDLSLCSDSIAAVESSSSSPENQQLRSPRRFTRLARLFQRVLRSKKVQTLEPTRLFVAEPVTARSGSFVGTHEYVAPEVASGGSHGNAVDWWAFGVFLYEMIYGKTPFVAPTNDVILRNIVKRQLSFPTDSPATMFELHARNLISGLLNKDPTKRLGSRRGAAEVKVHPFFKGLNFALIRTLTPPEIPSSVVKKPMKSATFSGRSSNKPAAFDYF
- binding [10]: no binding
- binding [11]: binds

The next lines start with the values.

- binding [4]: no binding
B3: cmi1 L59A, pDEST22/pDEST32 two-hybrid fusion (protein, UniProt O81831 1-130)
chain: T10 sequence with L59A

- binding [8]: binds
B4: CMI1, LexA system two-hybrid fusions (CMI1-LexA-BD and CMI1-Lex-AD) (protein, UniProt O81831 1-130)
chain: T10 sequence

- binding [9]: no binding
B5: cmi1D85N, pGAD-cmi1D85N two-hybrid fusion (protein, UniProt O81831 1-130)
chain: T10 sequence with D85N

- binding [10]: no binding
B7: ARF5, two-hybrid fusion (prey) (protein, UniProt P93024 1-902)
chain: MMASLSCVEDKMKTSCLVNGGGTITTTTSQSTLLEEMKLLKDQSGTRKPVINSELWHACAGPLVCLPQVGSLVYYFSQGHSEQVAVSTRRSATTQVPNYPNLPSQLMCQVHNVTLHADKDSDEIYAQMSLQPVHSERDVFPVPDFGMLRGSKHPTEFFCKTLTASDTSTHGGFSVPRRAAEKLFPPLDYSAQPPTQELVVRDLHENTWTFRHIYRGQPKRHLLTTGWSLFVGSKRLRAGDSVLFIRDEKSQLMVGVRRANRQQTALPSSVLSADSMHIGVLAAAAHATANRTPFLIFYNPRACPAEFVIPLAKYRKAICGSQLSVGMRFGMMFETEDSGKRRYMGTIVGISDLDPLRWPGSKWRNLQVEWDEPGCNDKPTRVSPWDIETPESLFIFPSLTSGLKRQLHPSYFAGETEWGSLIKRPLIRVPDSANGIMPYASFPSMASEQLMKMMMRPHNNQNVPSFMSEMQQNIVMGNGGLLGDMKMQQPLMMNQKSEMVQPQNKLTVNPSASNTSGQEQNLSQSMSAPAKPENSTLSGCSSGRVQHGLEQSMEQASQVTTSTVCNEEKVNQLLQKPGASSPVQADQCLDITHQIYQPQSDPINGFSFLETDELTSQVSSFQSLAGSYKQPFILSSQDSSAVVLPDSTNSPLFHDVWDTQLNGLKFDQFSPLMQQDLYASQNICMSNSTTSNILDPPLSNTVLDDFCAIKDTDFQNHPSGCLVGNNNTSFAQDVQSQITSASFADSQAFSRQDFPDNSGGTGTSSSNVDFDDCSLRQNSKGSSWQKIATPRVRTYTKVQKTGSVGRSIDVTSFKDYEELKSAIECMFGLEGLLTHPQSSGWKLVYVDYESDVLLVGDDPWEEFVGCVRCIRILSPTEVQQMSEEGMKLLNSAGINDLKTSVS

From paper doi:10.1101/488536
